The results in this text go back to PubChem BioAssay AID328 (DTP/NCI, 2004).

Each structure is given as a SMILES string. The list does not hold the whole screen: it gathers tests that were run many times, whatever their T/C, doses with no T/C, and many T/C values between a quarter and a half above the control. Further doses and runs are listed elsewhere. T/C gives the treated animals as a percentage of the vehicle group. Some entries give survivors of the animals treated and no T/C: the source holds a T/C of zero for them, seemingly a mark for toxic or unscored doses. Some doses without a T/C left all or most animals alive at the check, yet need not have been tolerated: survival well below the control is almost never listed, so the zero probably covers shortened survival too. Survivors were counted at the toxicity check, usually on the fifth day, unless a day is given; later deaths do not show. Schedules are NCI's codes, taken here to give the interval after Q, in days (D) or hours (H), and the number of doses after X. Some entries were tested several times; the values are given in rising order. For survival time, the PubChem record calls one and a half times the control and up active, and a quarter to a half above the control has no call in these data; cut-offs in other NCI protocols can differ. Some T/C values carry the count of animals alive at the toxicity check (mostly the fifth day); where none is given, no animal had died by that day.

This experiment has as its system BDF1 mice, P388 leukemia ip, median survival T/C. In words: NCI In Vivo Anticancer Drug Screen. Data for tumor model P388 Leukemia (intraperitoneal) in B6D2F1 (BDF1) mice. Particulars: T/C endpoint: median survival time, higher T/C = longer survival. In outline:
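Steps: implant the tumour, treat one group with compound and another with vehicle, record survival, then divide treated by control.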

[1] abbreviates: dose: 30.0 mg/kg/injection, schedule: Q01DX009 (ip), vehicle: saline.
[2] abbreviates: dose: 50.0 mg/kg/injection, schedule: Q04DX003 (ip), vehicle: saline.
[3] abbreviates: dose: 100.0 mg/kg/injection, schedule: Q01DX009 (ip), vehicle: saline.
Where [4] appears, read: dose: 200.0 mg/kg/injection, schedule: Q04DX003 (ip), vehicle: saline.
[5] abbreviates: dose: 400.0 mg/kg/injection, schedule: Q04DX003 (ip), vehicle: saline.
Setting [6] is: dose: 50.0 mg/kg/injection, schedule: Q01DX009 (ip), vehicle: saline.
The mark [7] stands for this setting: dose: 100.0 mg/kg/injection, schedule: Q01DX009 (ip), vehicle: saline with Tween-80.
Setting [8] is: dose: 400.0 mg/kg/injection, schedule: Q01DX009 (ip), vehicle: saline sonified.

Turning to `COC(=O)C1C(O)C(C)C(O)OC1C(C)C(O)C(C)/C=C\C=C(/C)C(=O)Nc1c(C)c(OC(C)=O)c2c(c1O)C(=O)C(C)=C1OCOC(/C(C)=C/C(C)=O)=C12` (centres undefined), the T/C (dose: 50.0 mg/kg/injection, schedule: Q01DX009 (ip), vehicle: Klucel (hydroxypropylcellulose) (HPC)) was 142 % of control and the T/C (dose: 100.0 mg/kg/injection, schedule: Q01DX009 (ip), vehicle: Klucel (hydroxypropylcellulose) (HPC)) is 142 % of control. For the same molecule, the survivor count runs as follows: (dose: 150.0 mg/kg/injection, schedule: Q01DX009 (ip), vehicle: Klucel (hydroxypropylcellulose) (HPC)) 0 of 6; (dose: 200.0 mg/kg/injection, schedule: Q01DX009 (ip), vehicle: Klucel (hydroxypropylcellulose) (HPC)) 5 of 6; (dose: 250.0 mg/kg/injection, schedule: Q01DX009 (ip), vehicle: Klucel (hydroxypropylcellulose) (HPC)) 0 of 6.
As for `O=[N+]([O-])c1ccc(N2CC2)c2c1no[n+]2[O-]`, the T/C (dose: 30.0 mg/kg/injection, schedule: Q04DX003 (ip), vehicle: saline with Tween-80) is 140 % of control and the T/C (dose: 60.0 mg/kg/injection, schedule: Q04DX003 (ip), vehicle: saline with Tween-80) is 131 % of control.
Turning to `CN(C)c1ccc(CC2Cc3ccccc3C2=O)cc1` (centres undefined), the survivor count (dose: 400.0 mg/kg/injection, schedule: Q01DX009 (ip), vehicle: other) was 4 of 6.
As for `COc1c2c([n+](C)c3c(OC)cccc13)OC(C(C)C)C2` (centres undefined), the survivor count was 2 of 6 (dose: 0.5 mg/kg/injection, schedule: Q01DX009 (ip), vehicle: saline); 0 of 6 and 5 of 6 (dose: 1.0 mg/kg/injection, schedule: Q01DX009 (ip), vehicle: saline); 6 of 6 (dose: 2.0 mg/kg/injection, schedule: Q01DX009 (ip), vehicle: Klucel (hydroxypropylcellulose) (HPC)); 0 of 6 (dose: 5.6 mg/kg/injection, schedule: Q04DX003 (ip), vehicle: saline); 0 of 6 (dose: 8.4 mg/kg/injection, schedule: Q04DX003 (ip), vehicle: saline).
With `COC(=O)C1C(O)CCC2CN3CCc4c([nH]c5ccccc45)C3CC21` (centres undefined), the T/C (dose: 200.0 mg/kg/injection, schedule: Q01DX009 (ip), vehicle: saline with Tween-80) is 140 % of control [4 of 6 alive].
On to `c1ccc2c[n+]3ccccc3cc2c1`, for which the survivor count is recorded as 6 of 6 (dose: 6.25 mg/kg/injection, schedule: Q01DX009 (ip), vehicle: Klucel (hydroxypropylcellulose) (HPC)); 5 of 6 (dose: 25.0 mg/kg/injection, schedule: Q01DX009 (ip), vehicle: saline); 6 of 6 (dose: 35.0 mg/kg/injection, schedule: Q04DX003 (ip), vehicle: saline).
Turning to `O=C(CN1CCCCC1)Nc1nc(-c2ccc(Cl)cc2)cs1`, the survivor count (dose: 50.0 mg/kg/injection, schedule: Q01DX005 (ip), vehicle: saline with Tween-80) is on record as 5 of 5 and the survivor count (dose: 200.0 mg/kg/injection, schedule: Q01DX005 (ip), vehicle: saline with Tween-80) is 5 of 5.
As for `C1CCC2[N-]CC3CCCCC3[N-]CC3CCCCC3[N-]CC3CCCCC3[N-]CC2C1.[Cu]` (centres undefined), the T/C is 125 % of control (dose: 0.39 mg/kg/injection, schedule: Q01DX009 (ip), vehicle: saline); 142 % of control (dose: 0.78 mg/kg/injection, schedule: Q01DX009 (ip), vehicle: saline); 144 % of control (dose: 3.12 mg/kg/injection, schedule: Q01DX009 (ip), vehicle: saline).
For the molecule `O=[N+]([O-])/C=C/c1ccccc1Cl`, the survivor count (dose: 15.0 mg/kg/injection, schedule: Q04DX003 (ip), vehicle: other) is on record as 4 of 6 and the survivor count (dose: 22.5 mg/kg/injection, schedule: Q04DX003 (ip), vehicle: other) is given as 4 of 6.
Consider `CCN(CC)P(=O)(N1CC1C)N1CC1C` (centres undefined), for which the T/C is 135 % of control (dose: 13.2 mg/kg/injection, schedule: Q01DX009 (ip), vehicle: saline); 135 % of control (dose: 18.7 mg/kg/injection, schedule: Q01DX009 (ip), vehicle: saline); 129 % of control under setting [1]; 145 % of control (dose: 37.5 mg/kg/injection, schedule: Q01DX009 (ip), vehicle: saline); 146 % of control [5 of 6 alive] (dose: 45.0 mg/kg/injection, schedule: Q01DX009 (ip), vehicle: saline); 145 % of control under setting [2]. The survivor count reads like this: (dose: 60.0 mg/kg/injection, schedule: Q01DX009 (ip), vehicle: saline) 6 of 6; (dose: 75.0 mg/kg/injection, schedule: Q01DX009 (ip), vehicle: saline) 6 of 6.
Take `NNC(=O)C(O)C(O)C(=O)NN` (centres undefined): the survivor count under setting [1] is recorded as 7 of 7.
Take `CSc1ccc2c(c1)C(N1CCN(C)CC1)Cc1ccccc1S2` (centres undefined): the T/C (dose: 12.5 mg/kg/injection, schedule: Q04DX003 (ip), vehicle: saline) was 132 % of control.
As to `CC/C(=C\c1ccc(Cl)cc1)[N+](=O)[O-]`, the survivor count was 6 of 6 under setting [2], 6 of 6 under setting [3], 5 of 6 under setting [4] and 0 of 6 under setting [5].
In the case of `C#CC1(OCC2CO2)CCCCC1` (centres undefined), the survivor count under setting [6] is reported as 6 of 6. For the same molecule, the T/C under setting [5] is 130 % of control.
Consider `COc1cc([C@@H]2c3cc4c(cc3[C@H](SC(=N)N)[C@H]3COC(=O)[C@H]23)OCO4)cc(OC)c1OC`, for which the survivor count (dose: 40.0 mg/kg/injection, schedule: Q01DX009 (ip), vehicle: Klucel (hydroxypropylcellulose) (HPC)) is given as 7 of 10 and the survivor count (dose: 60.0 mg/kg/injection, schedule: Q01DX009 (ip), vehicle: Klucel (hydroxypropylcellulose) (HPC)) is 9 of 10.
`CN(C)c1ccc(/C=C/c2ccnc3ccc(Cl)cc23)cc1`: under setting [7], the T/C is 133 % of control.
Turning to `NC(=S)N/N=C/C=C/c1ccccc1`, the survivor count is 0 of 6 (dose: 200.0 mg/kg/injection, schedule: Q04DX002 (ip), vehicle: Klucel (hydroxypropylcellulose) (HPC)) and 0 of 6 (dose: 400.0 mg/kg/injection, schedule: Q04DX002 (ip), vehicle: Klucel (hydroxypropylcellulose) (HPC)).
As to `COc1cc(C=O)cc(O)c1O`, under setting [8], the T/C is 130 % of control and the survivor count was 5 of 6.
With `C(/C=C\c1ccccc1)=Nc1ccccc1`, the T/C under setting [7] is 130 % of control.
For `COC(=Nc1ccccc1)SSC(C)C`, the T/C reads like this: (dose: 12.5 mg/kg/injection, schedule: Q01DX009 (ip), vehicle: saline with Tween-80) 135 % of control; (dose: 25.0 mg/kg/injection, schedule: Q01DX009 (ip), vehicle: saline with Tween-80) 134 % of control; (dose: 50.0 mg/kg/injection, schedule: Q01DX009 (ip), vehicle: saline with Tween-80) 143 % of control; under setting [7], 133 % of control.
Take `CC(=O)OCC(=O)[C@@]1(O)CC[C@H]2[C@@H]3CCC4=CC(=O)C=C[C@]4(C)[C@H]3[C@@H](O)C[C@@]21C`: the survivor count was 6 of 6 under setting [3], 5 of 6 under setting [4] and 4 of 6 under setting [5].
With `O=NN(CCCl)C(=O)NC1CCC(NC(=O)N(CCCl)N=O)CC1` (centres undefined), the T/C runs as follows: (dose: 5.5 mg/kg/injection, schedule: Q04DX003 (ip), vehicle: saline with Tween-80) 141 % of control; (dose: 8.0 mg/kg/injection, schedule: Q01DX009 (ip), vehicle: saline with Tween-80) 137 % of control. The survivor count (dose: 400.0 mg/kg/injection, schedule: Q01DX009 (ip), vehicle: saline with Tween-80) is reported as 6 of 6.
With `N=c1c(C(N)=O)cnc2n1CCCCC2`, the survivor count was 5 of 6 under setting [4] and 0 of 6 under setting [5].
On to `O=P1(NCCCl)OCCCN1CCCl` (centres undefined), for which the T/C (dose: 12.5 mg/kg/injection, schedule: Q01DX009 (ip), vehicle: saline) is 131 % of control; the T/C under setting [6] is 129 % of control; the T/C (dose: 100.0 mg/kg/injection, schedule: Q01DX009 (ip), vehicle: water) is 139 % of control. Further, the survivor count (dose: 400.0 mg/kg/injection, schedule: Q01DX009 (ip), vehicle: water) was 4 of 10.
